For 31 molecules, binding results are on record in patent EP4633740A2.

Protein sequences, listed by entry. Tags and fused reporters are not part of them. Lines headed by an entry give the natural chain unless they say otherwise; changes in a name come on top.
UniProt P06756: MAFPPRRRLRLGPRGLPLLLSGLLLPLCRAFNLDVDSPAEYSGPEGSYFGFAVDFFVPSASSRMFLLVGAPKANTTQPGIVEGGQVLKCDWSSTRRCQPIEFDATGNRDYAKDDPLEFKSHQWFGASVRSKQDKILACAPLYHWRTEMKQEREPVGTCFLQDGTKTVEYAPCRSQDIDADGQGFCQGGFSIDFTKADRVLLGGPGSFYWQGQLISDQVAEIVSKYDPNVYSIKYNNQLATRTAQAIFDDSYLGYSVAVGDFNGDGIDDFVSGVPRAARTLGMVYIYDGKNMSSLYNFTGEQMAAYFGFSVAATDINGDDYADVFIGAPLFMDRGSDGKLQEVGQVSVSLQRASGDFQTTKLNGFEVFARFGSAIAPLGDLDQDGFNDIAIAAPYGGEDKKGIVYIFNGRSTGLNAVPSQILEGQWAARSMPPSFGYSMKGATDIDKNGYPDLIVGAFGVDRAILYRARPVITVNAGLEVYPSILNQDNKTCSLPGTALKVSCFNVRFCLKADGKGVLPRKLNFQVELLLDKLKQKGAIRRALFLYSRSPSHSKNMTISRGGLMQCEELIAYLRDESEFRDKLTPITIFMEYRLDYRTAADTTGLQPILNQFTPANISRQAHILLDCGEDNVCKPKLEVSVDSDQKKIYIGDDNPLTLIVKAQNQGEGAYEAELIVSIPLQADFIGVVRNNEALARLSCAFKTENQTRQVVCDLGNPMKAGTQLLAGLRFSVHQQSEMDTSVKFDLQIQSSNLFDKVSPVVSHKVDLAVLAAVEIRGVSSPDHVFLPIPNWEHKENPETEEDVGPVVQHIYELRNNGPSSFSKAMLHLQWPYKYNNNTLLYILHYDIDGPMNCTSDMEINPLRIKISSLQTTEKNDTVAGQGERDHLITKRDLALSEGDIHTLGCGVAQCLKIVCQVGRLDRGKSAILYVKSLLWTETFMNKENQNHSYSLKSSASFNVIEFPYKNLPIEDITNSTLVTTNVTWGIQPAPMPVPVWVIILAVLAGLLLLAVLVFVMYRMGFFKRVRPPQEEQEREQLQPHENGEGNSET

Results are given in words; binding and its absence hold for the method and conditions named. Some binding calls cover weakened binding; strength is not graded here.

This test deals with human ITGAV/ITGB6 dimer protein (human) (UniProt P06756). Put plainly: colorimetric ELISA, periplasmic extracts. Background: An ELISA detects its analyte on a solid surface through an enzyme-linked reagent.

B1: SEQ ID NO 60 (VHH)
VHH: QVQLQESGGGLVQAGGSLRLSCAASGSIASINVMAWYRQAPGKQRELVALITSGTSTNYADSVKGRFTISRDNAKNTVYLQMNNLKPEDTAVYYCNARPRALASYSVWGQGTQVTVSS
In the case of B1, the binding entry is listed as “binds”.

B2: SEQ ID NO 61 (VHH)
VHH: QVQLQESGGGLVQAGGSLRLSCAASGNFFSSNAMGWYRQAPGKQREFVAVILSSGSTNYADSVKGRFTISGDNALNTVYLQMNSLKPEDTAVYYCNLKGLEGRTNNYWGQGTQVTVSS
For the molecule B2, the binding result was “binds”.

B3: SEQ ID NO 42 (VHH)
VHH: QVQLQESGGGLVQAGGSLRLSCAASGSIFSFNPMTWYRQSPGKQRELVALITGGDNTRYADSVKGRFTISRDNAKNTIHLQMNSLKPEDTAVYYCNVLWRNAIYWGQGTQVTVSS
For the molecule B3, the binding entry is “binds”.

B4: SEQ ID NO 44 (VHH)
VHH: QVQLQESGGGLVQAGGSLGLSCTVSGNIARFNPMTWYRQSPGKQRELVASITGGGNTNYADSVKGRFTISRDNAKNTIHLQMNSLKPEDTAVYYCNVLWRNAIYWGQGTQVTVSS
For the molecule B4, the binding result was “binds”.

B5: SEQ ID NO 43 (VHH)
VHH: QVQLQESGGGLVQAGGSLRLSCAASGSIFSFNPMTWYRQSPGKQRELVASITGGGNTNYADSVKGRFTISRDNAKNTIHLQMNSLKPEDTAVYYCNVLWRNAIYWGQGTQVTVSS
In the case of B5, the binding entry was “binds”.

B6: SEQ ID NO 45 (VHH)
VHH: QVQLQESGGGLVQAGGSLRLSCAASGSIFSFNPMTWYRQSPGKQRELVASITGGGNTNYADSVKGRFTISRDNAKSTIHLQMNSLKPEDTAVYYCNVLWRNAIYWGQGTQVTVSS
In the case of B6, the binding result is “binds”.

B7: SEQ ID NO 58 (VHH)
VHH: QVQLQESGGGLVQAGGSLRLSCAASGSIFSLNAMGWYRQAPGKQRELVATITTGGNTNYADFVNGRFTISRDNAKNTVYLQMNSLKPEDTAVYVCNAPHVPNGRGITTSWGQGTQVTVSS
As for B7, the binding result is given as “binds”.

B8: SEQ ID NO 51 (VHH)
VHH: QVQLQESGGGLVQAGGSLRLSCAASGSIRDIVFMGWFRQAPGKQREFVATITTGGNTNYADSMKGRFTISRDNAKNTVYLQVNSLKPEDTAVYYCKTVTTRGNAYWGQGTQVTVSS
Take B8: the binding result is reported as “binds”.

B9: SEQ ID NO 52 (VHH)
VHH: QVQLQESGGGSVQAGGSLRLSCAASGSIRDIVFMGWFRQAPGKQREFVATITTGGNTNYADSMKGRFTISRDNTKNTVYLQVNSLKPEDTAVYYCKTVTTRGNAYWGQGTQVTVSS
For the molecule B9, the binding entry is recorded as “binds”.

B10: SEQ ID NO 38 (VHH)
VHH: QVQLQESGGGLVQTGGSLRLACAASVSIASINFIGWYRRAPGNQREWVATVSSGDGTNYADSVKGRFTISRDNAKNTVYLQMNSLKPEDTAVYYCNVKQRGTYWGQGTQVTVSS
Consider B10, for which the binding entry is “binds”.

B11: SEQ ID NO 41 (VHH)
VHH: QVQLQESGGGLVQPGGSLRLACAASVSIASINFIGWYRQAPGNQREWVATVSSGDGTNYADSVKGRFTISRDNAKNTVYLQMNSLKPEDTAVYYCNVKQRGTYWGQGTQVTVSS
For B11, the binding result was “binds”.

B12: SEQ ID NO 39 (VHH)
VHH: QVQLQESGGGLVQTGGSLRLACAASVSIASINFIGWYRQAPGNQREWVATVSSGDGTNYADSVKGRFTISRDNAKNTVYLQMNSLKPEDTAVYYCNVKQRGTYWGQGTQVTVSS
Regarding B12, the binding entry is recorded as “binds”.

B13: SEQ ID NO 40 (VHH)
VHH: QVQLQESGGGLVQPGESLRLACAASVSIASINFIGWYRQAPGNQREWVATVSSGDGTNYADSVKGRFTISRDNAKNTVYLQMNSLKPEDTAVYYCNVKQRGTYWGQGTQVTVSS
In the case of B13, the binding result is “binds”.

B14: SEQ ID NO 48 (VHH)
VHH: QVQLQESGGGLVQAGGSLRLSCEASGSAVSIDNMGWYRQAPGQQREMVAHITSGGSTSYVDSVKGRFTISRDNAENTFYLQMNSLKPEDTAVYYCSANIYADVSHYTTYWGQGTQVTVSS
With B14, the binding entry is reported as “binds”.

B15: SEQ ID NO 63 (VHH)
VHH: QVQLQESGGGLVQAGGSLRLSCAASGNIYSINVMGWYRQAPGKQRELVATISDGGTTTYADSMKGRFTISRDNAKNTLYLQMNSLKPEDTAVYYCNLNGRNGRRAYWGQGTQVTVSS
For B15, the binding entry is “binds”.

B16: SEQ ID NO 46 (VHH)
VHH: QVQLQESGGGLVQAGGSLTLSCAASGDIFTVNAMGWYRQAPGKQRELVATIREPGSTNYADFVKGRFTISRDNAENTFYLQMNSLKPEDTAVYYCSANIYADVSHYTTYWGQGTQVTVSS
Take B16: the binding result was “binds”.

B17: SEQ ID NO 53 (VHH)
VHH: QVQLQESGGGLVQAGGSLRLSCAASGSIFSINFVAWFRQPPGKEREWLATITSGGNTNHADTVKDRFTISRDNAKNTVYLQMSSLKPEDTAVYYCKAIVRSRDYWGQGTQVTVSS
With B17, the binding result is given as “binds”.

B18: SEQ ID NO 54 (VHH)
VHH: QVQLQESGGGLVQAGGSLRLSCAASGSIFSINFVAWFRQPPGKEREWLATITSGGNTNHADTVKDRFTISRDNAKNTVYLQMSSLKPEDTAVYYCKTNVRSRDYWGQGTQVTVSS
Turning to B18, the binding result is “binds”.

B19: SEQ ID NO 66 (VHH)
VHH: QVQLQESGGGLVQAGGSLRLSCVASGITISSSHMGWYRQAPGKQRELVAIITTGDSTNYGDSVKGRFTISRDNNKNMVYLQMNSLKVEDTAVYYCKRTRIGGRDYWGQGTQVTVSS
For the molecule B19, the binding result is “binds”.

B20: SEQ ID NO 4 (VHH)
VHH: QVQLQESGGGLVQPGGSLRLSCAASGSIFSIDAMGWYRQAPGNQRELVAHIGSGGSTNYPDSVKGRFTISRDNAENTFYLQMNSLKPEDTAVYYCSANIYRDSYRYTTYWGQGTQVTVSS
For the molecule B20, the binding result is listed as “binds”.

B21: SEQ ID NO 9 (VHH)
VHH: QVQLQESGGGLVQAGGSLRLSCAASGSIFSIDAMGWYRQAPGNQRELVAHIISGNSTAYPDSVKGRFTISRDNAENTFYLQMNSLKPEDTAVYYCYANIYGDSYRYTTYWGQGTQVTVSS
In the case of B21, the binding entry was “binds”.

B22: SEQ ID NO 8 (VHH)
VHH: QVQLQESGGGLVQAGGSLRLSCAASGSIFSMNAMGWYRQAPGNQRELVAHITSGNSTSYPDSTKGRFTISRDNAENTFYLQMNSLKPEDTAVYYCYANIYGDSSRYTTYWGQGTQVTVSS
On to B22, for which the binding entry is on record as “binds”.

B23: SEQ ID NO 6 (VHH)
VHH: QVQLQESGGGLVQAGGSLRLSCAASGSIFSIDAMGWYRQGPGNQRELVAHITSGGSTSYIDSVKGRFTISRDNAENTFYLQMNSLKPEDTAVYYCSANIYGDSYRYTTYWGRGTQVTVSS
As for B23, the binding entry is reported as “binds”.

B24: SEQ ID NO 7 (VHH)
VHH: QVQLQESGGGLVQAGGSLRLSCAASGSIFSINAMGWYRQAPGNQRELVAHITSGSSTAYPDSVKGRFTISRDNAENTFYLQMNSLKPEDTAVYYCYANIYRDSYHYTTYWGQGTQVTVSS
Regarding B24, the binding result is “binds”.

B25: SEQ ID NO 5 (VHH)
VHH: QVQLQESGGGLVQAGGSLRLSCAASGSIFSIDAMGWYRQAPGNQRELVAHIISGNSTAYSDSVKGRFTISRDNAENTFYLQMNSLKPEDTAVYYCYVNIYSDSSRYTTYWGQGTQVTVSS
Take B25: the binding entry was “binds”.

B26: SEQ ID NO 59 (VHH)
VHH: QVQLQESGGGLVQAGGSLRLSCAASISILSIPAMGWYRQAPGKQRELVAIISSGGSTHYADSVKGRFTISRDNDKNTMYLEMDNLKPDDTAVYDCYARILTANRLTDNWGQGTQVTVSS
Take B26: the binding entry was “binds”.

B27: SEQ ID NO 56 (VHH)
VHH: QVQLQESGGGLVQAGGSLRLSCVASGSIFTINTMNQYRQAPGKQRDFVAAITSDGNTHYADSVRGRFTVSRNNARKTMYLQMNNLKPEDTAVYYCNIMGQRTVSANVRGYWGQGTQVTVSS
As to B27, the binding entry is reported as “binds”.

B28: SEQ ID NO 62 (VHH)
VHH: QVQLQESGGGLVQAGGSLRLSCAASDTIFSITFMSWYRQAPGKEREVVGVISSGGGTSYADSVKGRFTISRDNVKNTLYLQMNSLKPEDTAVYYCNVMSQNGRRSVYWGQGTQVTVSS
In the case of B28, the binding result is listed as “binds”.

B29: SEQ ID NO 65 (VHH)
VHH: QVQLQESGGGLVQPGGSLRLSCAASGSIRSNNAMGWYRQAPGKQREFVATMITGGSRNYTDSVKGRFTISRDNAKNTVWLQMNSLKPEDTAVYYCYYNKIGGRIYWGQGTQVTVSS
On to B29, for which the binding result is listed as “binds”.

B30: SEQ ID NO 64 (VHH)
VHH: QVQLQESGGGLVQAGGSLRLSCAASGRIRSFNVMGWYRQAPGKERELVANITSGGNTNYADSMKGRFTISRDNAKNMMYLQMDSLKPEDTAVYYCNLRQLGSRDYWGQGTQVTVSS
On to B30, for which the binding result was “binds”.

B31: SEQ ID NO 57 (VHH)
VHH: QVQLQESGGGLVQAGGSLRLSCTASGRIYSLNVMGWYRQAPGKQREFLATINSGGSTNYADSVKGRFTISRDNAKNTLYLQMNSLKPDDTALYYCRADGRSDYFNTFDSWGQGTQVTVSS
Turning to B31, the binding result was “binds”.
